Experimental data: publication doi:10.1101/2024.09.26.24313895

The chains behind the UniProt entries cited, without tags or fusion partners.
UniProt Q5JSZ5: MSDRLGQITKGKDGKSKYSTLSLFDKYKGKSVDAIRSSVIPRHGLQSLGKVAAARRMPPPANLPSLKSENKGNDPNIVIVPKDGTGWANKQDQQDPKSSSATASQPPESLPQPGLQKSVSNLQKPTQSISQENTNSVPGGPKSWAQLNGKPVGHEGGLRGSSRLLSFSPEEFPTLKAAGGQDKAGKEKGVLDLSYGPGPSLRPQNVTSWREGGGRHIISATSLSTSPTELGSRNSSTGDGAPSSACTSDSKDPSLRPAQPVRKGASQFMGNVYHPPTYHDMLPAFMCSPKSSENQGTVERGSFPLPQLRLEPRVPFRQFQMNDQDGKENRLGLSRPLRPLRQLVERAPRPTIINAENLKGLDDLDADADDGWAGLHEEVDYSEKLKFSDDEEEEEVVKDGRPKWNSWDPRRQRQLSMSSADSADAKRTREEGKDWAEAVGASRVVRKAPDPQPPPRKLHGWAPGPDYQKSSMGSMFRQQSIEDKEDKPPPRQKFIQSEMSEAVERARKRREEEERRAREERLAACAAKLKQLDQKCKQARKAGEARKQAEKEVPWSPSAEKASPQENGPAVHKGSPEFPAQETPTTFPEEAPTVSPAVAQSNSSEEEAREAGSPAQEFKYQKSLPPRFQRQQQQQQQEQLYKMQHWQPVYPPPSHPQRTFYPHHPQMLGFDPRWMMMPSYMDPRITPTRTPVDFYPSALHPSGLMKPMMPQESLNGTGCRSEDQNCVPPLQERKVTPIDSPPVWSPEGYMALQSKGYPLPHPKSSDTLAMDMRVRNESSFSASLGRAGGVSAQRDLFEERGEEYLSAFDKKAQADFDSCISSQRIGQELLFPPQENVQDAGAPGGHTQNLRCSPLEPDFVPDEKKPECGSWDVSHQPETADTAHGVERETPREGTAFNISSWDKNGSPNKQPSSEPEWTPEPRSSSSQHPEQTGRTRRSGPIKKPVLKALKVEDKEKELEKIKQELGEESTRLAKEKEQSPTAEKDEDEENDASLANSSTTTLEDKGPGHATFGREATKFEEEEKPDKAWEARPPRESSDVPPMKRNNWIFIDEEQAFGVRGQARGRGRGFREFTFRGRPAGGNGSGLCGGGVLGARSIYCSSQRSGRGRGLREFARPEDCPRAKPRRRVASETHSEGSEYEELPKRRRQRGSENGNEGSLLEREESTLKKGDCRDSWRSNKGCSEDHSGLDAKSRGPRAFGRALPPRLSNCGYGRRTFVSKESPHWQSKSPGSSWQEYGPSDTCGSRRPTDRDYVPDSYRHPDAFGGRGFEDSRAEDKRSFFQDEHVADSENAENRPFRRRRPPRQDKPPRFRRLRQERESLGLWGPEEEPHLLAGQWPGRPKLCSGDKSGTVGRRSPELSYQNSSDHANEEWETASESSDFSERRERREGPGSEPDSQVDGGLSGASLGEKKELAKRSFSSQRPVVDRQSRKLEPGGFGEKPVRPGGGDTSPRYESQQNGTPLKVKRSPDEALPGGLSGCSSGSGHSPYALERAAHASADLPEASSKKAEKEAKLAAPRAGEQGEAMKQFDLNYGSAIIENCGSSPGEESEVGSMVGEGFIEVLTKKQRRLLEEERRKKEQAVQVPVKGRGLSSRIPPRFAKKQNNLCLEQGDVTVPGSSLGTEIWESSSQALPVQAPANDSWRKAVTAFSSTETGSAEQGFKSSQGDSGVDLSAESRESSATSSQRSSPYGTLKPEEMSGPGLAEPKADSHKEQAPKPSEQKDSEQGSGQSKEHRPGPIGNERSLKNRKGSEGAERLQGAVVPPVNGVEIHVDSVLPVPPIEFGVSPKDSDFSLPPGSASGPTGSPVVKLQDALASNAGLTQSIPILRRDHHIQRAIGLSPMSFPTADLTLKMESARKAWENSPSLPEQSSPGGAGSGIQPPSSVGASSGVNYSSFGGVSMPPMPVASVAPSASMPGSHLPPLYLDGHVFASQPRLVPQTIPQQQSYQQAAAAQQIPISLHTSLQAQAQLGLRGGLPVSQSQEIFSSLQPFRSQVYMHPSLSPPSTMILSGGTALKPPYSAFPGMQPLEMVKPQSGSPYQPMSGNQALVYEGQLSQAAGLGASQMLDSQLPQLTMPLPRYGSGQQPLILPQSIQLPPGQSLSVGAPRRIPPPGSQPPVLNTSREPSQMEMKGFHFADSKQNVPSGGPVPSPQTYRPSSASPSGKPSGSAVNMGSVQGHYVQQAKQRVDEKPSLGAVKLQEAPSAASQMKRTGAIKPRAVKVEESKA
UniProt P51114: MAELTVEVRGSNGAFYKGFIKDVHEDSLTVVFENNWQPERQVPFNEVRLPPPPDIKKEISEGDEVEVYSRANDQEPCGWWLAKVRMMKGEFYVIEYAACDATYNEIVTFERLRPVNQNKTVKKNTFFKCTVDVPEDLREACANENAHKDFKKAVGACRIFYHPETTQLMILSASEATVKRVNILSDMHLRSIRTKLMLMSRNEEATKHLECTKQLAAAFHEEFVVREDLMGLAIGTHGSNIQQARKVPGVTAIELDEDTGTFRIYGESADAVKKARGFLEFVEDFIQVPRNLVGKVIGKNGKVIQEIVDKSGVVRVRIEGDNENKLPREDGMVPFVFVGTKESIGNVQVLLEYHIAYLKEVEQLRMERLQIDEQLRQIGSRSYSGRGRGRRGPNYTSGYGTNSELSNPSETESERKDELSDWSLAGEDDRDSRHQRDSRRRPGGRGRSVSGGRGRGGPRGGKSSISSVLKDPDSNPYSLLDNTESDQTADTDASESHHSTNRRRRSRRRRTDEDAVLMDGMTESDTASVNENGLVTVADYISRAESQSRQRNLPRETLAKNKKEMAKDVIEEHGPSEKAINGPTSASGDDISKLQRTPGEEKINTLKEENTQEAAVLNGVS
UniProt P78344: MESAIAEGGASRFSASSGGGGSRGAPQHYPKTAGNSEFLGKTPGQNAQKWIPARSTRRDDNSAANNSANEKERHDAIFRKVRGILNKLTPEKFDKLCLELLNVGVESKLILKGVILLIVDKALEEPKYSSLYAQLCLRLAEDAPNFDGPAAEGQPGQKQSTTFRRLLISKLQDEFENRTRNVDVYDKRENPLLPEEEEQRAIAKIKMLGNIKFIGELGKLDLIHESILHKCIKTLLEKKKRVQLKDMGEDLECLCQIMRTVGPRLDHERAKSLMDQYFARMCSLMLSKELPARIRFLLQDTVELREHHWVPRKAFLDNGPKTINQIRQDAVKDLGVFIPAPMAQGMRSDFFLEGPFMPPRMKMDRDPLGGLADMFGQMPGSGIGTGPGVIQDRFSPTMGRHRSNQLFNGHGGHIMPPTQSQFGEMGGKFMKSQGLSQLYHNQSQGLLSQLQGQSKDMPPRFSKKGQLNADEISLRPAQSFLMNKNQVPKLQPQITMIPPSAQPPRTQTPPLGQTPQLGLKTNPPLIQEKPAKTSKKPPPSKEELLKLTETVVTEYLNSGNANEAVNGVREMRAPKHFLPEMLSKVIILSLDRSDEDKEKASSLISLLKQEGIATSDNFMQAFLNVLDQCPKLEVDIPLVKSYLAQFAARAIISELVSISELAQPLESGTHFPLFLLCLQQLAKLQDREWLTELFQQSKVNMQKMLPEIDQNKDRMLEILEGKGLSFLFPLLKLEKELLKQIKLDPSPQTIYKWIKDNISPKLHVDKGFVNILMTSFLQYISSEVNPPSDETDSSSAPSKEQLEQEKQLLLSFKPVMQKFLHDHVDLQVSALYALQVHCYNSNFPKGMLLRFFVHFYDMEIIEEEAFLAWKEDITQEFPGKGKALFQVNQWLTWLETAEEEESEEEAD

Molecular target: FLAG-tagged full-length PRRC2B (Pro-rich Coiled-coil Containing Protein 2B) (human) (UniProt Q5JSZ5)
Test: affinity purification with mass spectrometry

Row | Substance | binding
1 | FXR1 (from UniProt P51114 1-621) | binds
2 | eIF4G2 (noncanonical translational initiation factor) (from UniProt P78344 1-907) | binds

Results are given in words; binding and its absence hold for the method and conditions named. Binding seen in cells or lysates may run through a third protein. Here binding means that the protein was enriched with, or labelled near, the bait; the list need not be complete.
